# No constants are given. Whether binding was seen depends on the method and setting. Some binding calls cover weakened binding; strength is not graded here.
# Sequences of proteins named here, by UniProt entry; tags and fusion partners are left off.
# UniProt P13569: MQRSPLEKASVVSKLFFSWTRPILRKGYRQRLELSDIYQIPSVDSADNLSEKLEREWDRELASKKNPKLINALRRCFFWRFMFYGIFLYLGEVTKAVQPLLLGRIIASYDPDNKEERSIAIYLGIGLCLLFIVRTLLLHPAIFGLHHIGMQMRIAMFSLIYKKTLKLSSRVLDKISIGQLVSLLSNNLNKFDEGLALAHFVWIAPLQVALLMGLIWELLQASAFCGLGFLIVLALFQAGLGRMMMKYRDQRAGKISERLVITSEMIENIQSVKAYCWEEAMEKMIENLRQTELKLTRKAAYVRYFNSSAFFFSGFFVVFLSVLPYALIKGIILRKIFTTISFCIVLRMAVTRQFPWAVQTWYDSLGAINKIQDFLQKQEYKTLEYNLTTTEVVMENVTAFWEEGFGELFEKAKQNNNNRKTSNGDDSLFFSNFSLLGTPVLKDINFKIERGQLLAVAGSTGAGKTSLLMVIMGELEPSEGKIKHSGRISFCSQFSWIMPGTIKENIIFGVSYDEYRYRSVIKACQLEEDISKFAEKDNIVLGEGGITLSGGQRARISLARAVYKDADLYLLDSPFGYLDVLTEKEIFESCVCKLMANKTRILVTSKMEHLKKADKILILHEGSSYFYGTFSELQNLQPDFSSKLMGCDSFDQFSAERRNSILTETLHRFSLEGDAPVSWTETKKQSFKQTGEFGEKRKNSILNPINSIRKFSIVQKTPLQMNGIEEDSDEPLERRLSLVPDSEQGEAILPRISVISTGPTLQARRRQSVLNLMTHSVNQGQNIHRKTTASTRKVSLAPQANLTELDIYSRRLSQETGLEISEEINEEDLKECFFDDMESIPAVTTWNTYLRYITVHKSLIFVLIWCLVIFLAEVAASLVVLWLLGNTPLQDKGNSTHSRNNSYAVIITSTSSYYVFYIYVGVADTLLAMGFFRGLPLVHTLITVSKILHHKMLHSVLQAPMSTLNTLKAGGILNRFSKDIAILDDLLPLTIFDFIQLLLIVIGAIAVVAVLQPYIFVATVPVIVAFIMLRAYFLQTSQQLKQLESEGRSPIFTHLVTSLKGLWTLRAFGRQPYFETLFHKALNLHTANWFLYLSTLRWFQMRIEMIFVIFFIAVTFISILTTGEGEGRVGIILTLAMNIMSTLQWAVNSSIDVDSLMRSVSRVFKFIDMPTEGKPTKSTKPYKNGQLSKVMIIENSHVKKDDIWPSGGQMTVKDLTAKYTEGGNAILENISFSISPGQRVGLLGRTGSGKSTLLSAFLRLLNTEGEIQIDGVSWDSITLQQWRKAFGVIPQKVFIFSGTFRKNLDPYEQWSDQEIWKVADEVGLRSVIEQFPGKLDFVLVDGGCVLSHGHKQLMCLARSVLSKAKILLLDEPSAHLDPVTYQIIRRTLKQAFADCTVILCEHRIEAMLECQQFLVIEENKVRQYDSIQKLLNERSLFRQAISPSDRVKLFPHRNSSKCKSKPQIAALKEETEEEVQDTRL
# Target: Venus-CFTR (full-length CFTR) (UniProt P13569)
# Test: flow cytometric FRET in HEK293 cells, Cerulean-nb.E3h donor and Venus-CFTR acceptor
binder,measurement,value
"Cerulean-nb.E3h (VHH, not shown: large carriers) VHH: QVQLQESGGGLVQAGGSLRLSCAASGTISGSGSMGWYRQAPGKEREFVAAINVGSNTYYADSVKGRFTISRDNAKNTVYLQMNSLKPEDTAVYYCAVRFGYYYRHTYWGQGTQVTVSS",binding,binds

# Source: patent US20230235084A1, “COMPOSITIONS AND METHODS FOR TARGETED PROTEIN STABILIZATION BY REDIRECTING ENDOGENOUS DEUBIQUITINASES” (THE TRUSTEES OF COLUMBIA UNIVERSITY IN THE CITY OF NEW YORK, priority 2020, published 2023)
